PubChem BioAssay AID1259304, Sanger Institute – 2017

- Test: 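Kinase partners that kill colorectal cancer cells together with three anchor drugs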 (secondary deconvolution rescreen of primary hits)
- Cell system: HT115 human colorectal cancer cells
- Reagents: single siRNA against human genes
- Challenge: anchor drugs BYL719 at 1 µM, cetuximab at 5 µg/ml or trametinib at 10 nM, each set against DMSO vehicle
- Measured: 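Replicate-averaged viability as a fraction of non-targeting control, with a drug-siRNA synergy score from joint versus separate effects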
- Reading the numbers: synergy score with BYL719: higher = stronger synthetic lethal interaction with BYL719; synergy score with cetuximab: higher = stronger synthetic lethal interaction with cetuximab; synergy score with trametinib: higher = stronger synthetic lethal interaction with trametinib; viability, siRNA with trametinib and viability, siRNA with DMSO vehicle: higher = more cells surviving
- Call rule: 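Called active when the synergy score is above 0.10 for any of BYL719, cetuximab or trametinib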
- Calls: active = synergy with at least one anchor drug; inactive = no synergy with any anchor drug
In all, the deposit lists 160 reagents; this is a part drawn at random. Over the whole deposit, 88 (55%) were called active. 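Four siRNAs per gene, each called on its own in one cell line; calls are not confirmed gene-level hits.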 Entries without a mark were called inactive. The numbers tell different reagents against one gene apart. No viability above 1 is reported: the scale is capped. Not stated in the record: the amount of reagent, the time to read-out.

Target gene	reagent no.	synergy score with BYL719	synergy score with cetuximab	synergy score with trametinib	viability, siRNA with trametinib (fraction of control)	viability, siRNA with DMSO vehicle (fraction of control)
EPHA6	1	-0.0195 (active)	0.0161	0.106	0.53	0.653
EPHA6	2	0.101 (active)	-0.0702	0.0596	0.611	0.688
EPHA6	3	-0.145	-0.176	-0.0248	0.591	0.581
EPHA6	4	0.0272 (active)	-0.0121	0.273	0.701	1
PLK1	1	-0.0777	-0.0353	-0.0052	0.14	0.139
PLK1	2	0.011	0.00236	0.0258	0.132	0.162
PLK1	3	-0.0325	0.000146	-0.0149	0.139	0.127
PLK1	4	-0.0421	-0.0146	-0.00722	0.0919	0.0868
NLK	1	-0.108	0.0299	-0.0187	0.864	0.867
NLK	2	-0.078 (active)	0.031	0.184	0.51	0.713
NLK	3	-0.133	-0.0484	0.034	0.78	0.835
NLK	4	-0.0232	-0.0185	0.0319	0.927	0.984
IRAK1	1	-0.0801 (active)	-0.117	0.378	0.331	0.728
IRAK1	2	0.00926 (active)	0.111	0.105	0.755	0.882
IRAK1	3	0.117 (active)	0.153	0.195	0.626	0.842
IRAK1	4	0.396 (active)	-0.153	-0.2	0.728	0.542
RPS6KA4	1	-0.147	0.00109	0.0379	0.683	0.739
RPS6KA4	2	0.254 (active)	-0.0142	0.31	0.538	0.87
RPS6KA4	3	0.0629 (active)	0.0359	0.188	0.47	0.674
RPS6KA4	4	0.0223 (active)	0.124	0.236	0.519	0.775
CHD4	1	-0.00933	-0.0213	0.00292	0.656	0.676
CHD4	2	-0.206	-0.0837	-0.106	0.499	0.403
CHD4	3	-0.154	-0.0884	-0.0733	0.829	0.775
CHD4	4	-0.00965	0.0431	0.0506	0.924	1
GTF2H1	1	-0.136	-0.059	-0.0268	0.671	0.661
GTF2H1	2	0.0188	0.085	-0.0254	1	1
GTF2H1	3	-0.206	-0.13	-0.0779	0.947	0.892
GTF2H1	4	0.12 (active)	0.177	0.202	0.539	0.76
NR2F2	1	-0.0145 (active)	0.0812	0.273	0.668	0.965
NR2F2	2	-0.0724	-0.146	0.0818	0.763	0.867
NR2F2	3	0.0205 (active)	-0.113	0.158	0.817	1
NR2F2	4	0.0177 (active)	0.146	0.413	0.505	0.942
MARK3	1	0.054	-0.0523	0.0992	0.875	1
MARK3	2	-0.0614	-0.0244	0.0808	0.864	0.969
MARK3	3	-0.13	-0.0498	0.0111	0.658	0.686
MARK3	4	-0.102 (active)	-0.00879	0.26	0.715	1
MAPKAPK2	1	0.0387 (active)	0.0765	0.142	0.628	0.79
MAPKAPK2	2	-0.0419	-0.0698	-0.0623	0.845	0.803
MAPKAPK2	3	-0.0104	-0.0509	-0.128	0.937	0.83
MAPKAPK2	4	-0.0268	0.056	0.0575	0.82	0.901
PRAG1	1	-0.046 (active)	-0.0169	0.194	0.536	0.748
PRAG1	2	0.482 (active)	-0.0446	0.0558	0.631	0.705
PRAG1	3	0.055	-0.0445	0.059	0.762	0.842
PRAG1	4	0.0641 (active)	0.12	0.278	0.549	0.849
MAP3K8	1	0.03 (active)	0.0677	0.231	0.743	0.999
MAP3K8	2	0.00968	0.0506	0.0593	0.619	0.696
MAP3K8	3	-0.0617	0.0284	0.0167	0.693	0.728
MAP3K8	4	-0.0518 (active)	-0.0137	0.199	0.512	0.73
CDKN2D	1	0.113 (active)	0.218	0.36	0.492	0.874
CDKN2D	2	0.069 (active)	0.127	0.117	0.472	0.604
CDKN2D	3	0.0808 (active)	0.0147	0.34	0.634	1
CDKN2D	4	-0.0749 (active)	0.0273	0.112	0.537	0.666

A portion from the list above, for reference:
Target gene	reagent no.	synergy score with BYL719	synergy score with cetuximab	synergy score with trametinib	viability, siRNA with trametinib (fraction of control)	viability, siRNA with DMSO vehicle (fraction of control)
GTF2H1	1	-0.136	-0.059	-0.0268	0.671	0.661
GTF2H1	2	0.0188	0.085	-0.0254	1	1
GTF2H1	3	-0.206	-0.13	-0.0779	0.947	0.892
GTF2H1	4	0.12 (active)	0.177	0.202	0.539	0.76
NR2F2	1	-0.0145 (active)	0.0812	0.273	0.668	0.965
